This note sets out measurements from patent US20020183241A1, “Methods for treating vertigo and motion sickness using descarboethoxyloratadine” (priority 1997, published 2002).

The chains behind the UniProt entries cited, without tags or fusion partners. Where a name states a change or a piece, a line headed by the entry shows the natural chain unless it says otherwise.
UniProt Q8WNY2: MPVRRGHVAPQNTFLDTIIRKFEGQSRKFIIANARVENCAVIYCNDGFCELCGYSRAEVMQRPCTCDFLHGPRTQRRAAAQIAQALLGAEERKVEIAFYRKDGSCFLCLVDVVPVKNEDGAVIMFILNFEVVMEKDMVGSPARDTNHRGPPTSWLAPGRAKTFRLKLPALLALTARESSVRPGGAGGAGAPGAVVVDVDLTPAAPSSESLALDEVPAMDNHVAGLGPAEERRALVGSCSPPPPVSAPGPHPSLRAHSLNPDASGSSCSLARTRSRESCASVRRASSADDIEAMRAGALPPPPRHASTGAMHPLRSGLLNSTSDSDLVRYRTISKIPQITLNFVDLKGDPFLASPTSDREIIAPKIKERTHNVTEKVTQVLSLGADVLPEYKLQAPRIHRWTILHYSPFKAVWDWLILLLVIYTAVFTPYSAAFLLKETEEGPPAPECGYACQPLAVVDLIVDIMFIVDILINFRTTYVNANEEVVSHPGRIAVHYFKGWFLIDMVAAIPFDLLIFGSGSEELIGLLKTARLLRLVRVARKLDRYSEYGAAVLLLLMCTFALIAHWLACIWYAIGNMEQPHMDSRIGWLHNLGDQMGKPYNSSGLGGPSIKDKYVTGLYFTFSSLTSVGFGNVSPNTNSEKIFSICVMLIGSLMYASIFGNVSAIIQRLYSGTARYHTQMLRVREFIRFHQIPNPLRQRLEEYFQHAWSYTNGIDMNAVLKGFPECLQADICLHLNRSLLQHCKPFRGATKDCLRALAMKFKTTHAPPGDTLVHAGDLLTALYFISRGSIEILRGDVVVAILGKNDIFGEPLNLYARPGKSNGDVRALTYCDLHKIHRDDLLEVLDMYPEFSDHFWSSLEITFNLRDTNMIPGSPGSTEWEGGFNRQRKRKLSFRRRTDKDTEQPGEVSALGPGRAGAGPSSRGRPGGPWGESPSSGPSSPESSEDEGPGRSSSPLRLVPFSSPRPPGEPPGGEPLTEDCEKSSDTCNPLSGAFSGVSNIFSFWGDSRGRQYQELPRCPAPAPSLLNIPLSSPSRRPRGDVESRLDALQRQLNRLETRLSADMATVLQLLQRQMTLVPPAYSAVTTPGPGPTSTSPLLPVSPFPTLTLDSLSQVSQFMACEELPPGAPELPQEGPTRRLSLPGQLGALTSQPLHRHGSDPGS

This assay deals with delayed rectifying K+ current (IKr) (Oryctolagus cuniculus, UniProt Q8WNY2). Kind of assay: cell-based.

What is called IC50 is the concentration that inhibits the measured activity by half. Low values mean higher potency, high ones lower potency. The compound `CCOC(=O)N1CCC(=C2c3ccc(Cl)cc3CCc3cccnc32)CC1` [Loratadine] had an IC50 of about 9 µM.
